Reference: patent US10900063B2, “Measurement of Lp-PLA2 activity” (ASAHI KASEI PHARMA CORPORATION, priority 2016, dated 2021)
Numbering of substitutions follows the chain as printed. Numbers in names are those of the source. The name of at least one read-out is uncertain.

B1: lyso-PAF-PLD: recombinant enzyme from Thermocrispum sp. NITE BP-01628, SEQ ID NO: 9, PLD activity against lyso-PAF but not PAF (protein)
chain: MTTRTTDNPWLDARVLNMAHAGGENEAPANTLYAFKRAVKLGANMLELDVQSTKDDQLVVIHNATVDQTTDGTGKVRDLTFEQVHELDAAYNFIPGRHAVPGEPPESYPLRGVRTGEKKPPPGYQPSDFAIPKLADVLEAFPRTPINIEIKGTSDADIPSFLHNAKLLARLLKKTGRTDFIVTSFNDLAVAKFHLLAPDIPIAPGMAGLAAYFLLGVKPMHGTVALQIPVRYQGLEIATPEFIRRAHADGYAVHVWFSGTAPDDEATYNRIIDSCADGLMPAYPALLERILDERGIERPGRPGVDPCG
B2: M45G: lyso-PAF-PLD mutant, G substituted for M in the 45th position of SEQ ID NO: 9 (protein)
chain: B1 chain with M45G
B3: M45A: lyso-PAF-PLD mutant, A substituted for M in the 45th position of SEQ ID NO: 9 (protein)
chain: B1 chain with M45A
B4: M45L: lyso-PAF-PLD mutant, L substituted for M in the 45th position of SEQ ID NO: 9 (protein)
chain: B1 chain with M45L
B5: M45D: lyso-PAF-PLD mutant, D substituted for M in the 45th position of SEQ ID NO: 9 (protein)
chain: B1 chain with M45D

Test: PLD activity (kcat/Km) of lyso-PAF-PLD and site-specific mutants against lyso-PAF
Type: biochemical
Conditions: 37° C., pH 7.5, 0 to 5 mM lyso-PAF
Experimental: As a result, the pre-mutation PLD activity was 1385 (s^−1 mM^−1), but the mutant having G substituted for the M in the 45th position of SEQ ID NO: 9 (called M45G) and the similarly-named mutants M45A, M45L and M45D had PLD activities of 3059, 11411, 3284 and 4557 (s^−1mM^−1), respectively.
As a result, the PLD activity was 1385 (s^−1mM^−1) before the mutation, but the mutant having G substituted for F in the 257th position of […] (called F257G) and the similarly-named mutants F257E, F257R, F257K and F257W had PLD activities 1200, 1000, 1080, 1020 and 1320, respectively.
The PLD activity of the lyso-PAF-PLD mutants obtained by site-specific mutations was measured as follows. 1.211 g of Tris, 14.7 mg of calcium chloride dihydrate (Wako Pure Chemical Industries, Ltd.), 20 mL of lyso-PAF solution and 2 mL of 1% TODB solution were dissolved in 60 mL of purified water, the pH was adjusted to 7.5 (25° C.) with 1 N HCl, 4 mL of 100 U/mL choline oxidase, 4 mL of 100 U/mL peroxidase solution and 2 mL of 1% 4-AA solution were added and dissolved, and the total was brought to 100 mL with purified water to obtain a PLD activity measurement reagent for lyso-PAF (reaction reagent mixture). The lyso-PAF solution was adjusted so that the lyso-PAF concentration in the reaction reagent mixture was 0 to 5 mM. 3 mL of the reaction reagent mixture was pre-heated for 5 minutes at 37° C., and mixed with 50 μL of a solution of the lyso-PAF-PLD mutant with the introduced site-specific mutation diluted appropriately with 10 mM Tris-HCl (pH 7.5) to initiate a reaction, and the change in absorbance at 546 nm was measured for 1 minute between 8 and 9 minutes after initiation of the reaction. The activity value (μmole/min) was calculated given 36 (cm^2/μmole) as the millimolar extinction coefficient of the quinoneimine dye at 546 nm. The protein content (mg/mL) was calculated by the Bradford method using bovine serum albumin as the standard. Km and kcat were calculated by the Michaelis-Menten formula in accordance with the methods described in the aforementioned Theory and Practice on Enzymes and other Proteins [Tanpakushitsu/Kouso no kiso jikkenhou] and in Voet's Basic Biochemistry (Fourth Ed.) and the like. For purposes of calculation, the molecular weight of the enzyme was given as 33583.

| Molecule | PLD activity against lyso-PAF (kcat/Km) [M⁻¹ s⁻¹] |
| --- | --- |
| B1 | 1.385e+06 |
| B2 | 3.059e+06 |
| B3 | 1.1411e+07 |
| B4 | 3.284e+06 |
| B5 | 4.557e+06 |

Same assay, conditions: substrate lyso-PAF 0 to 5 mM, pH 7.5, 37° C.

| Molecule | kcat/Km (PLD activity against lyso-PAF) [M⁻¹ s⁻¹] |
| --- | --- |
| B2 | 3.059e+06 |
| B3 | 1.1411e+07 |
| B4 | 3.284e+06 |
| B5 | 4.557e+06 |
